Laboratory results from paper PMC9437563.
Where a chain is given by its changes, count along the chain named. Results are given in words; binding and its absence hold for the method and conditions named. For some of these results: In cells and extracts the contact can be indirect. Some binding calls cover weakened binding; strength is not graded here. For some of these results: Sequences can lack the tags named with a protein. Values belong to the binder of their own block, whether it stands above or below them.

Legend:
GST-RNF113A K20F (human) = target: T1, GST-RNF113A K20F (human) (UniProt O15541); assay: pull-down; GST-tagged RNF113A WT or mutants on Glutathione Sepharose beads; purified PPP4R3a added, overnight at 4 °C; 150 mM NaCl, 50 mM Tris pH 8, 0.1% NP40, 0.5 mM EDTA, 0.5 mM DTT; immunoblot; both purified
T1 sequence: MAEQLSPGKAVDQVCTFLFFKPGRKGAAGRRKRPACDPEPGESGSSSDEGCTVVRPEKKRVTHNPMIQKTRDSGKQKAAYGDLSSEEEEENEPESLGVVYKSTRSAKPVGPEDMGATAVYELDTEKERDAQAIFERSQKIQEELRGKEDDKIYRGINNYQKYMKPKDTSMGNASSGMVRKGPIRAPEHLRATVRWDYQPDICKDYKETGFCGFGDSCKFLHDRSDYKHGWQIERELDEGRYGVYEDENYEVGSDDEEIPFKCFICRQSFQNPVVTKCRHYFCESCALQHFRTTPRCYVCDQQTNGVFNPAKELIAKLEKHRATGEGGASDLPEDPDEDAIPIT

GST-RNF113A K20A (human) = target: T2, GST-RNF113A K20A (human) (UniProt O15541); assay: as above
T2 sequence: T1 sequence with F20A

GST-RNF113A WT (human) = GST-RNF113A WT (human) (UniProt O15541); assay: as above
[1] = target: HA-tagged RNF113A WT, transiently expressed in 293T cells (human) (UniProt O15541); assay: co-IP; HA-tagged RNF113A transiently expressed in 293T (36 h), anti-HA resin overnight at 4 °C; 50 mM Tris-HCl pH 8.0, 137 mM NaCl, 1 mM EDTA, 0.5% NP40, 10% glycerol; endogenous PPP4R3a by immunoblot

- binding (GST-RNF113A K20F (human)): no binding
- binding (GST-RNF113A K20A (human)): binds
- binding (GST-RNF113A WT (human)): binds
B1: recombinant PPP4R3a (protein, UniProt Q6IN85 1-833)
chain: MTDTRRRVKVYTLNEDRQWDDRGTGHVSSGYVERLKGMSLLVRAESDGSLLLESKINPNTAYQKQQDTLIVWSEAENYDLALSFQEKAGCDEIWEKICQVQGKDPSVDITQDLVDESEEERFDDMSSPGLELPSCELSRLEEIAELVASSLPSPLRREKLALALENEGYIKKLLELFHVCEDLENIEGLHHLYEIIKGIFLLNRTALFEVMFSEECIMDVIGCLEYDPALSQPRKHREFLTKTAKFKEVIPISDPELKQKIHQTYRVQYIQDMVLPTPSVFEENMLSTLHSFIFFNKVEIVGMLQEDEKFLTDLFAQLTDEATDEEKRQELVNFLKEFCAFSQTLQPQNRDAFFKTLSNMGILPALEVILGMDDTQVRSAATDIFSYLVEYNPSMVREFVMQEAQQNDDVSKKLTEQKITSKDILLINLIIEHMICDTDPELGGAVQLMGLLRTLVDPENMLATANKTEKTEFLGFFYKHCMHVLTAPLLANTTEDKPSKDDFQTAQLLALVLELLTFCVEHHTYHIKNYIINKDILRRVLVLMASKHAFLALCALRFKRKIIGLKDEFYNRYIMKSFLFEPVVKAFLNNGSRYNLMNSAIIEMFEFIRVEDIKSLTAHVIENYWKALEDVDYVQTFKGLKLRFEQQRERQDNPKLDSMRSILRNHRYRRDARTLEDEEEMWFNTDEDDMEDGEAVVSPSDKTKNDDDIMDPISKFMERKKLKESEEKEVLLKTNLSGRQSPSFKLSLSSGTKTNLTSQSSTTNLPGSPGSPGSPGSPGSPGSVPKNTSQTAAITTKGGLVGLVDYPDDDEDDDEDEDKEDTLPLSKKAKFDS

- binding [1]: binds
B2: endogenous PPP4R3a from 293T cell extracts (protein, UniProt Q6IN85 1-833)
chain: B1 chain
